Patent US20100104568A1 (published 2010)
No constants are given. Whether binding was seen depends on the method and setting. Some binding calls cover weakened binding; strength is not graded here.

B1: RANKL6 (VHH)
VHH: EVQLVESGGGLMQTGGSLRLSCAASGVTYSYYTASWFRQAPGKEREFVAAISPSGNTYYADSVKGRFTISRDNGKHTMYLQMNSLNPEDTAVYFCAIRATDSIYYASSYRHWGQGTQVTVSS
B2: RANKL9 (VHH)
VHH: EVQLVESGGGLVQAGGSLRLTCAASGRTFRSYAMGWFRQAPGKEREFVAAINYSGGSTNYADSVKGRFTISRDNAKNTLYLQMNSLEPEDTAVYYCAAGSGYASLSYYSTERAYTYWGQGTQVTVSS
B3: RANKL15 (VHH)
VHH: EVQLVESGGGLVQAGGSLRLSCAAAGGTFRNYVMGWFRQAPGKEREFVTAISTGGSWTGYVDSVKDRFTISRDNTKNTVYLQMASLKPEDTAVYYCAATTPATTYLPRSERQYDYWGQGTQVTVSS
B4: RANKL18 (VHH)
VHH: EVQLVESGGGLVQAGGSLRLSCAASGRTFSRSAMGWFRQAPGKEREFVGFITGSGGTTYYGESVKGRFTISRDNAQNPVYLQMNSLKPEDTAVYYCGVYRRTYISSTYSESSEYDYWGQGTQVTVSS

The binders below were run against cynomolgus RANK-L, full length, membrane-bound, expressed on HEK293T cells (cynomolgus monkey) (assay: FACS).

Binder | binding
B1 | binds
B2 | binds
B3 | binds
B4 | binds
